Binding data for 2 substances are collected here from publication PMC8224239.

Protein sequences, listed by entry. Tags and fused reporters are not part of them.
UniProt O14980: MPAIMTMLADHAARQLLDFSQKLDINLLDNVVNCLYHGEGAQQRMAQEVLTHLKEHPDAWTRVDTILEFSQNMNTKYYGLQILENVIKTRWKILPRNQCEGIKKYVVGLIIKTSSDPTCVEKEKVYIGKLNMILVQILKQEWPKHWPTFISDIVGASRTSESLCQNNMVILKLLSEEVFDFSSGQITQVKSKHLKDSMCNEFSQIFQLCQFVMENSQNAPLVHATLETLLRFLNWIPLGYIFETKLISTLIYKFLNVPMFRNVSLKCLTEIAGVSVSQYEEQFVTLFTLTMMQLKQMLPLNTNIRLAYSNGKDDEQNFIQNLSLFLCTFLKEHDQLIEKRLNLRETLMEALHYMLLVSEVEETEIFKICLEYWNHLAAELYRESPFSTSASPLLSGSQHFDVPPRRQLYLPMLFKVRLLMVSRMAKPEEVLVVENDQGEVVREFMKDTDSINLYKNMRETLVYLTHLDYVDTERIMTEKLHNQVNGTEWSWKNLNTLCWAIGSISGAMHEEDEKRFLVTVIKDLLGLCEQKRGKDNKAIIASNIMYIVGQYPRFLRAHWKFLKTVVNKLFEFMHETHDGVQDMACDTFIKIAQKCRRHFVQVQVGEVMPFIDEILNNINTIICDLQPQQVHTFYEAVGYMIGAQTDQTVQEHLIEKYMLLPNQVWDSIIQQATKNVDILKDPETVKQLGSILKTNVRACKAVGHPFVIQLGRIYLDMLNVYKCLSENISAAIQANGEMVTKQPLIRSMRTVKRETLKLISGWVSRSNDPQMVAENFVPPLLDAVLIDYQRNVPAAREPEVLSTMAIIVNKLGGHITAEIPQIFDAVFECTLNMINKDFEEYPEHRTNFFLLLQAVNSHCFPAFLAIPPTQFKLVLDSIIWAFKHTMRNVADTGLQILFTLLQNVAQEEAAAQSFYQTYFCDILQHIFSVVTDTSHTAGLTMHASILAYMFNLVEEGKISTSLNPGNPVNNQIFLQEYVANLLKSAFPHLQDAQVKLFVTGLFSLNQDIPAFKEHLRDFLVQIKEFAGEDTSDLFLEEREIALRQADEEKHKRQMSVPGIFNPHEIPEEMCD
UniProt Q9Y265: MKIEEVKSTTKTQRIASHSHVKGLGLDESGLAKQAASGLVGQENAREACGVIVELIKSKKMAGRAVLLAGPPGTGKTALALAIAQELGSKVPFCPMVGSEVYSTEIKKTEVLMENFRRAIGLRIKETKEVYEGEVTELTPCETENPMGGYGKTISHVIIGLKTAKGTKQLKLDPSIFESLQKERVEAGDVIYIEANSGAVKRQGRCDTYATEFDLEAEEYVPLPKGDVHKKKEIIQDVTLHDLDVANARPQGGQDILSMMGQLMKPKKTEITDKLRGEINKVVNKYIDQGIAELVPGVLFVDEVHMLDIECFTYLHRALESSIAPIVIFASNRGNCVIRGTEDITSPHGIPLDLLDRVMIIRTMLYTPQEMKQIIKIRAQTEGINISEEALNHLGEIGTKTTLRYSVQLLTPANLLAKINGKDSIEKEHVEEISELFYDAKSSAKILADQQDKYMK

Results are given in words; binding and its absence hold for the method and conditions named. Binding seen in cells or lysates may run through a third protein. Some entries that bind do so weakly or less than the wild type. For part of these data: Sequences can lack the tags named with a protein.

Experiment [1] concerns the target ecdysoneless (ECD) protein, endogenous (human (endogenous in HEK-293T and MCF10A)) (UniProt O95905). Nature of the experiment: co-IP; endogenous proteins; HEK-293T or MCF10A lysates in Triton lysis buffer (20 mM Tris-HCl pH 7.5, 200 mM NaCl, 1% Triton X-100); 1 mg lysate protein with 5 ug antibody overnight at 4°C, protein A/G-agarose; Western blotting.
The target of experiment [2] is T1, GST fusion of ECD-P617G (human) (UniProt O95905).
T1 sequence: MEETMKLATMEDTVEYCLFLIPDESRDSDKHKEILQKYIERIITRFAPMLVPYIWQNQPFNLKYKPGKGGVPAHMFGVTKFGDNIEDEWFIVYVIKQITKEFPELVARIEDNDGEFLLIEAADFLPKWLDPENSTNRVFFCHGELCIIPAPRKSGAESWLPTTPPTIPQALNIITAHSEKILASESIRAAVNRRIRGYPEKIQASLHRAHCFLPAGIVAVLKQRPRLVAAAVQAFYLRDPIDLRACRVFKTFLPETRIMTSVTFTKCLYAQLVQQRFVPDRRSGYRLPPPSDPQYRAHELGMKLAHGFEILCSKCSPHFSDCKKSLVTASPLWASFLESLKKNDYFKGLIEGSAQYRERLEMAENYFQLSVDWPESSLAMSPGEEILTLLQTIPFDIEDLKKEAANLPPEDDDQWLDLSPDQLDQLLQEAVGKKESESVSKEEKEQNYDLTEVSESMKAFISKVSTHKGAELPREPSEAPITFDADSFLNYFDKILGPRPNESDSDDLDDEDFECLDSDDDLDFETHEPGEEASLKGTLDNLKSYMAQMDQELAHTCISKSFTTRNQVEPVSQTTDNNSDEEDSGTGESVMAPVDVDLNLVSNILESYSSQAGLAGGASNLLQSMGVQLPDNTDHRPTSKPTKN
In words: pull-down; 20 ug GST fusion protein of ECD or its mutants on glutathione-Sepharose incubated with 1 mg protein lysate of HEK-293T cells transfected with FLAG-DDX39A and/or FLAG-RUVBL1; Western blotting; only the target purified.

The target of experiment [3] is GST fusion with full-length ECD (1 to 644 aa) (human) (UniProt O95905). The description is as above.

For the substance “CRM1, endogenous (from UniProt O14980 1-1071)”, the binding entry in experiment [1] is “binds”. Regarding “FLAG-tagged RUVBL1 (from UniProt Q9Y265 1-456)”, the binding result in experiment [2] and in experiment [3] was “binds” each time.
